Assay results published in publication PMC11234209.
No constants are given. Whether binding was seen depends on the method and setting. Binding seen in cells or lysates may run through a third protein. These calls come from enrichment with a bait or labelling near it, and not all partners need be listed.

Sequences of proteins named here, by UniProt entry; tags and fusion partners are left off.
UniProt P54578: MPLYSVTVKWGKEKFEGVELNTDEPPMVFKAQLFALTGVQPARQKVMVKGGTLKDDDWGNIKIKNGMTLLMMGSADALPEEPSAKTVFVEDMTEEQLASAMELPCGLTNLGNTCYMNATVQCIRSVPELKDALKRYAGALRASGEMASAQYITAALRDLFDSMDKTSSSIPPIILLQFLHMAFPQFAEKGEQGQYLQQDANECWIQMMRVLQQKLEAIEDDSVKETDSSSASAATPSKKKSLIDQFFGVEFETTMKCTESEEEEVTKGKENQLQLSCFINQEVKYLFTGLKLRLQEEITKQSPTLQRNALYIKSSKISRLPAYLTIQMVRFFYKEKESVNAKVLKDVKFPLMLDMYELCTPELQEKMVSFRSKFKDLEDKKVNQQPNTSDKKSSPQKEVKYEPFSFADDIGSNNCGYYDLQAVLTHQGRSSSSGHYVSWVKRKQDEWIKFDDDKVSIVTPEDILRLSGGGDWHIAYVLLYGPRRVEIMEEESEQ

Molecular target: ubiquitin-specific protease 14 (USP14), endogenous (human (endogenous in PLC-R)) (UniProt P54578)
Test: affinity purification with mass spectrometry; PLC-R cell lysate immunoprecipitated with anti-USP14 or IgG antibodies, protein A/G magnetic beads, gel, mass spectrometry

B1: calcium- and integrin-binding protein 1 (CIB1), endogenous (protein, UniProt Q99828 1-191)
chain: MGGSGSRLSKELLAEYQDLTFLTKQEILLAHRRFCELLPQEQRSVESSLRAQVPFEQILSLPELKANPFKERICRVFSTSPAKDSLSFEDFLDLLSVFSDTATPDIKSHYAFRIFDFDDDGTLNREDLSRLVNCLTGEGEDTRLSASEMKQLIDNILEESDIDRDGTINLSEFQHVISRSPDFASSFKIVL
With B1 the binding was “binds”.
